# According to PubChem BioAssay AID1347423 (Functional Genomics Laboratory (NCATS/FGL), 2020):
# The whole screen tested about 52,000 sequences, of which about 210 (0.4%) were called active.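 The calls were made as follows: active = gene whose silencing raises cell survival under the drug, median off-target-corrected z-score across its silencing RNAs 2 or more; inactive = the rest.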 Some of the results follow.
# Assay: Resistance to Poly (ADP-Ribose) Polymerase inhibitor: Gene Identification via Genome-wide siRNA Screen
# Details: mouse BRCA2 R2336H ES cells, olaparib, CellTiter-Glo viability; hits give high values
# In short: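 Genome-wide siRNA screen (3 siRNAs/gene, 20 nM) in mouse ES cells carrying hypomorphic BRCA2 R2336H; olaparib 500 nM added 48 h post-transfection, CellTiter-Glo viability 72 h later. Normalized to plate-median negative control; MAD z-scores, gene median, seed-adjusted.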
row,Sequence,z-score
1,GCGUGAGGAUGUAGACUACTT against Mmp12,inactive: -2.12
2,GAGUUGUCCUCUUCACCAUTT against Olfr483,inactive: 0.339
3,GGAGAAAUCAAACACAAGUTT against Slco5a1,inactive: -0.446
4,CCCACUUCUCAGAUGAAAUTT against Zcchc11,inactive: -1.16
5,GGAUCUGAAGCAUUUUAAATT against Nalp10,inactive: 0.728
6,CGGUACCUUGUACAUGGUUTT against Ptprn2,inactive: 0.584
7,GGAUUCAUCGGGUCAGGAGTT against 4933425I22Rik,inactive: -0.439
8,GGUCAAUGCUGUUAAGAAATT against Sart1,inactive: -2.27
9,GGAUCUUUUCGUGUCCUGCTT against Pik3ap1,inactive: 0.775
10,CCCAUGGGAAGUUCAUCUCTT against Olfr123,inactive: 1.66
11,CCUCAGGAUACAGACCCACTT against MGC73851,inactive: -0.927
12,GGAGAAAGAUGAAGUCUUUTT against Sav1,inactive: -1.78
13,GGCUAUCGAUGAGAAAAGUTT against BC065151,inactive: -2.47
14,GGUGCUGCUAGUGAACAAGTT against E2f4,inactive: 0.647
15,GGUUAUAAAACUAUGGAACTT against Map2k5,inactive: 0.58
16,GGCACACCUAGACACAGAATT against D18Wsu98e,inactive: -0.245
17,CCAUUAAAACCACUAUCUGTT against 9130023F12Rik,inactive: 0.196
18,GCAAGAAGAGGUGUGCGUCTT against 2610204M08Rik,inactive: 0.665
19,GCCACCUCCUACCAAAUGUTT against Sprr4,inactive: -1.41
20,GGAUGAAAACACUGAAUACTT against Olfr644,inactive: -0.889
21,UUGGAGAGAAGCCUAUAACTT against 4930451I11Rik,inactive: -0.838
22,GGAAUUCGGGAAAUUGGUCTT against A230062G08Rik,inactive: 0.868
23,CCUUAAGCAGAGUUCAAAGTT against Timm22,inactive: 0.042
24,GGAGAUGAAGUCAUUGAAUTT against Casq1,inactive: -0.021
25,GGGCUACAGCCUUGAAAACTT against Lyzl4,inactive: -0.204
26,GGAAGAGCAGGCAUCCAUATT against 4432417N03Rik,inactive: -0.307
27,GGUCCGAAAGGCAGCUAUATT against Fcer1g,inactive: -0.726
28,GGAGAAGAGAAAGAUUCUUTT against Dhx9,inactive: 0.134

# Rewritten as tab-separated lines: entries from further up
row	Sequence	z-score
2	GAGUUGUCCUCUUCACCAUTT against Olfr483	inactive: 0.339
7	GGAUUCAUCGGGUCAGGAGTT against 4933425I22Rik	inactive: -0.439
16	GGCACACCUAGACACAGAATT against D18Wsu98e	inactive: -0.245
23	CCUUAAGCAGAGUUCAAAGTT against Timm22	inactive: 0.042
27	GGUCCGAAAGGCAGCUAUATT against Fcer1g	inactive: -0.726
